Experimental findings from doi:10.1101/2024.07.16.603680 are described below.

Chains of the proteins cited; added tags and fusions are not shown.
UniProt P18583: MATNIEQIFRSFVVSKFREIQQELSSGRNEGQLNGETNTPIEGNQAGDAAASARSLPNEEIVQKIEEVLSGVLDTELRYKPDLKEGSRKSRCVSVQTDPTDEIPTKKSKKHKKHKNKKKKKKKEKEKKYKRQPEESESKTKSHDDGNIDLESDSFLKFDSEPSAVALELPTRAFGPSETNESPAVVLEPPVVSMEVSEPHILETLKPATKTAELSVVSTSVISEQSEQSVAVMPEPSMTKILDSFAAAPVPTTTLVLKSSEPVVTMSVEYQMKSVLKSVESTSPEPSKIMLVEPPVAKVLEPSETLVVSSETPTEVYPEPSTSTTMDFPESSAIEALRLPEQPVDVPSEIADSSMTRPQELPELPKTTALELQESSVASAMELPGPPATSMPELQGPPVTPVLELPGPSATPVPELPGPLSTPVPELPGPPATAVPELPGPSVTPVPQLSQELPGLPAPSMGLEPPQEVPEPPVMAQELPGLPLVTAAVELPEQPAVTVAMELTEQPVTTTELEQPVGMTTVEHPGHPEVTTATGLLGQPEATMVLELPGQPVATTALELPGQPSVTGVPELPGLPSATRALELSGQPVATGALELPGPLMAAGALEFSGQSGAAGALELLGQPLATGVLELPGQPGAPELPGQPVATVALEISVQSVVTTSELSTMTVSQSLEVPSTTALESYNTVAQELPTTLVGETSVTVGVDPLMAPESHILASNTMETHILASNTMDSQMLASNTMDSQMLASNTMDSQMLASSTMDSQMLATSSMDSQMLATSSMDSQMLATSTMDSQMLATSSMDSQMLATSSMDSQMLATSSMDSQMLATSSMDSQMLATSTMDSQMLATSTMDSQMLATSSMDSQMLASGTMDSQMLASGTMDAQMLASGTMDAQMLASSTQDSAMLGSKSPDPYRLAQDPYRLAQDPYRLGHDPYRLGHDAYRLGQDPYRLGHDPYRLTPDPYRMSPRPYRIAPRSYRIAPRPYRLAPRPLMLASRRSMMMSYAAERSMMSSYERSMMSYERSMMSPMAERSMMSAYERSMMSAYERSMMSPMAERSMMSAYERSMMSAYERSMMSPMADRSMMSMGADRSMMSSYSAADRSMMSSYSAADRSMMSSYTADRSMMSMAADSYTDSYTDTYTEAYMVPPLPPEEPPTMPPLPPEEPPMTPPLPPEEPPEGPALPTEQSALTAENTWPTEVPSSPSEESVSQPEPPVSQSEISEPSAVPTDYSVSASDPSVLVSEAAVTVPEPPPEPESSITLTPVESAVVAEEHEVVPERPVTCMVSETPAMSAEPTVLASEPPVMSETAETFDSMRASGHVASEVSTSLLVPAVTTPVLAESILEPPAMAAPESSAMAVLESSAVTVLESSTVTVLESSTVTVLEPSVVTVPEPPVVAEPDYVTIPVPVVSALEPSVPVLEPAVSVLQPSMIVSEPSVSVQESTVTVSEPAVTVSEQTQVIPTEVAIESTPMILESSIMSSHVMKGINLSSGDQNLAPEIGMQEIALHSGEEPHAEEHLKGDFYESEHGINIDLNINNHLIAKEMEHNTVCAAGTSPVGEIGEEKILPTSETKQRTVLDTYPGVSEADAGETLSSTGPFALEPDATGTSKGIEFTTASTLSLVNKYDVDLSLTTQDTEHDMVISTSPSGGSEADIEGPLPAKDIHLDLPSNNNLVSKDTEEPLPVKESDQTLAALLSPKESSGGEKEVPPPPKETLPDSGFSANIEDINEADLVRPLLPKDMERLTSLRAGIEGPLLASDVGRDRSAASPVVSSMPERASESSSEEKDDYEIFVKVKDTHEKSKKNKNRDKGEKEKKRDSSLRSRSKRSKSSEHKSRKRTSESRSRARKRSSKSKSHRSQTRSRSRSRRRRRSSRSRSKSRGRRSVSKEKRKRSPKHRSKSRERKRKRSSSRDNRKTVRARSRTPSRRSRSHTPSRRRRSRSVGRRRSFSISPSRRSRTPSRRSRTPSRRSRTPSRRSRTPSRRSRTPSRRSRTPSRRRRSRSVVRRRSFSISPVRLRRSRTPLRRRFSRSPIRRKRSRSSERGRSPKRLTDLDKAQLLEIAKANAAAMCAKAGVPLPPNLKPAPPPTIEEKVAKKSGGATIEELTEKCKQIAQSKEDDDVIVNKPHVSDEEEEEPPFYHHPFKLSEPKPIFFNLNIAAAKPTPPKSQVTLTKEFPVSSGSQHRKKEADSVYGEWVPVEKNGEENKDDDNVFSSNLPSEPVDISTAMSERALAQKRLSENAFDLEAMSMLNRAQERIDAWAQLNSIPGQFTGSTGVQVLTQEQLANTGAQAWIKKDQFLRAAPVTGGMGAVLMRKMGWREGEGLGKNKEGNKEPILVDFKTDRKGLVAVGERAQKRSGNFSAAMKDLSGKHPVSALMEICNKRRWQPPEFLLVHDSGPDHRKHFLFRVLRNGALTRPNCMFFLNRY

Results are given in words; binding and its absence hold for the method and conditions named. In cells and extracts the contact can be indirect. Some entries that bind do so weakly or less than the wild type.

Substrate in this assay: SON (human (endogenous in IMR90)) (UniProt P18583)
Kind of assay: co-IP.

B1: CCCTC-binding insulator (CTCF) (protein, UniProt P49711 1-727)
chain: MEGDAVEAIVEESETFIKGKERKTYQRRREGGQEEDACHLPQNQTDGGEVVQDVNSSVQMVMMEQLDPTLLQMKTEVMEGTVAPEAEAAVDDTQIITLQVVNMEEQPINIGELQLVQVPVPVTVPVATTSVEELQGAYENEVSKEGLAESEPMICHTLPLPEGFQVVKVGANGEVETLEQGELPPQEDPSWQKDPDYQPPAKKTKKTKKSKLRYTEEGKDVDVSVYDFEEEQQEGLLSEVNAEKVVGNMKPPKPTKIKKKGVKKTFQCELCSYTCPRRSNLDRHMKSHTDERPHKCHLCGRAFRTVTLLRNHLNTHTGTRPHKCPDCDMAFVTSGELVRHRRYKHTHEKPFKCSMCDYASVEVSKLKRHIRSHTGERPFQCSLCSYASRDTYKLKRHMRTHSGEKPYECYICHARFTQSGTMKMHILQKHTENVAKFHCPHCDTVIARKSDLGVHLRKQHSYIEQGKKCRYCDAVFHERYALIQHQKSHKNEKRFKCDQCDYACRQERHMIMHKRTHTGEKPYACSHCDKTFRQKQLLDMHFKRYHDPNFVPAAFVCSKCGKTFTRRNTMARHADNCAGPDGVEGENGGETKKSKRGRKRKMRSKKEDSSDSENAEPDLDDNEDEEEPAVEIEPEPEPQPVTPAPPPAKKRRGRPPGRTNQPKQNQPTAIIQVEDQNTGAIENIIVEVKKEPDAEPAEGEEEEAQPAATDAPNGDLTPEMILSMMDR
For the molecule B1, the binding result is “binds”.
